The other results are listed elsewhere or left out. Shown are side measurements of this screen, not its main read-out; they come without a call. Most of these compounds were active or inconclusive in the main read-out, so they are no random draw. The note in brackets gives the kind of curve behind each potency; many fits are weak.
Assay: qHTS Assay for Lipid Storage Modulators in Drosophila S3 Cells;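 as to cell number change: cells counted by Cell Tracker Red CMTPX staining in the red channel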
Conditions: BODIPY lipid droplet fluorescence, 18-24 h; for cell number change: measured here: cell count max response, cells fed with added oleic acid
Method in brief: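 Drosophila S3 cells got compounds at several concentrations plus oleic acid (400 uM solution). Laser-scanning cytometry with 488 nm excitation read lipid droplets at 500-530 nm and cells at 575-640 nm. Percent activity was relative to 20 uM Triacsin C.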

[1] = measured here: lipid fluorescence (Fed channel) AC50, cells fed with added oleic acid
[2] = measured here: cell number channel AC50, cells fed with added oleic acid

In the case of `CN1CCN(Cc2cc(Cl)c3cccnc3c2OC(=O)c2cccs2)CC1`, the cell number change is reported as -7.52% and the AC50 [1] is reported as 25.9 µM [falling, single point].
`COc1ccccc1CCC(=O)OCC(=O)N1CCN(S(=O)(=O)c2ccc(C)cc2C)CC1` showed a cell number change of -26.1%.
With `CCC1Oc2ccccc2N(CC(=O)NCCN2CCCC2)C1=O` (stereo unspecified) the cell number change was 12.7% and the AC50 [2] was 4.61 µM [rising, single point].
With `Cc1ccc(-n2c(C)cc(C(=O)CSc3nnc4ccccn34)c2C)cc1` the cell number change was -13.7% and the AC50 [1] was 29.1 µM [falling, single point].
In the case of `COc1ccc(C)cc1NC(=O)CSc1nnc(-c2ccc(OC)c(OC)c2)n1N`, the cell number change is reported as -12.3% and the AC50 [2] is reported as 0.651 µM [rising, single point].
For `COc1ccc(-c2cc(C(=O)OCc3ccccn3)c3ccccc3n2)cc1`, the cell number change was 51.3%, the AC50 [2] was 14.6 µM [rising, partial curve, poor fit] and the AC50 [1] was 29.1 µM [falling, partial curve, poor fit].
In the case of `CCSc1nnc([C@@H]2CCCN2C(=O)OC(C)(C)C)o1`, the AC50 [1] is reported as 5.8 µM [falling, single point].
For `O=C(CSc1nc2ncc(Cl)cc2[nH]1)Nc1cccc(F)c1`, the cell number change was -10.1% and the AC50 [1] was 2.91 µM [falling, partial curve, poor fit].
For `O=C(c1ccc(NS(=O)(=O)c2cccs2)cc1)N1CCN(c2ccccc2Cl)CC1`, the cell number change was 30.9% and the AC50 [2] was 0.164 µM [rising, full curve, poor fit].
In the case of `FC(F)(F)Oc1ccc(Nc2nc(N3CCOCC3)nc(N3CCOCC3)n2)cc1`, the cell number change is reported as 20.9%, the AC50 [2] is reported as 0.164 µM [rising, single point] and the AC50 [1] is reported as 20.6 µM [rising, single point].
In the case of `Cc1ccc(S(=O)(=O)N2CCN(S(=O)(=O)c3ccccc3)C2)cc1`, the cell number change is reported as 3.08% and the AC50 [1] is reported as 0.13 µM [falling, full curve, poor fit].
`COc1ccc(-c2nnc(NC(=O)C(C)C)s2)c(OC)c1` gave a cell number change of -11.6%.
For `CCN(CC)S(=O)(=O)c1ccc(N2CCOCC2)c(NC(=O)COc2ccccc2C)c1`, the cell number change was 0.461% and the AC50 [1] was 0.0291 µM [rising, full curve, poor fit].
`COc1ccc(NC(=O)CS(=O)CC(=O)Nc2ccc(F)cc2F)cc1` (stereo unspecified) showed a cell number change of 17.5%.
With `CCOc1ccc(CCNC(=O)CN2C(=O)NC3(CCCCC3)C2=O)cc1OCC` the cell number change was -1.82% and the AC50 [2] was 3.26 µM [falling, single point].
In the case of `CCOC(=O)c1cccc(NC(=O)CN(c2ccc(OC)cc2)S(=O)(=O)c2c(C)noc2C)c1`, the cell number change is reported as -35.4%.
For `COc1ccc(N(CC(O)CN2CCOCC2)S(=O)(=O)c2ccc(C)cc2)cc1` (stereo unspecified), the cell number change was 5.56% and the AC50 [1] was 6.51 µM [falling, single point].
With `O=C(Nc1nnc(SCc2c(Cl)cccc2Cl)s1)c1cccc([N+](=O)[O-])c1` the cell number change was 6.44% and the AC50 [1] was 4.61 µM [rising, partial curve].
In the case of `COc1ccc(CCNC(=O)CN(c2ccc(OC)c(OC)c2)S(C)(=O)=O)cc1OC`, the cell number change is reported as -60.4% and the AC50 [2] is reported as 25.9 µM [falling, partial curve, poor fit].
In the case of `CCOC(=O)Cc1nnc2c(Nc3ccccc3F)nc3nonc3n12`, the AC50 [1] is reported as 6.51 µM [rising, single point].
For `O=C(CSc1nc2ccccc2c(=O)n1CC1CCCO1)NCCc1ccccc1` (stereo unspecified), the cell number change was -23.6% and the AC50 [1] was 29.1 µM [falling, single point].
With `COc1cc(C(=O)OCC(=O)NCc2ccc(F)cc2)ccc1OCC(C)C` the cell number change was 42.8% and the AC50 [2] was 29.1 µM [rising, single point].
In the case of `COc1cc2c(cc1OC)CN(C(=O)c1cc3ccccc3oc1=O)CC2`, the cell number change is reported as 41.3% and the AC50 [2] is reported as 29.1 µM [rising, single point].
In the case of `CCOCCCNC(=O)NC(=O)CN1CCN(S(=O)(=O)c2ccc3c(c2)OCCO3)CC1`, the cell number change is reported as -33.8% and the AC50 [1] is reported as 1.03 µM [rising, full curve].
With `Cc1ccc(S(=O)(=O)c2cc3c(=O)n4ccccc4nc3n(CC3CCCO3)c2=N)cc1C` (stereo unspecified) the cell number change was 19.8% and the AC50 [1] was 5.8 µM [rising, partial curve, poor fit].
In the case of `O=S(=O)(Nc1cccc(-c2ccc(N3CCCCCC3)nn2)c1)c1ccccc1Cl`, the cell number change is reported as -0.283% and the AC50 [1] is reported as 16.4 µM [falling, single point].
For `CCCc1cc(C(=O)O)c2ccccc2n1`, the cell number change was 4.55%.
For `O=C(N/C(=C\c1ccccc1)C(=O)N1CCN(CCO)CC1)c1ccccc1`, the cell number change was 14.4% and the AC50 [2] was 0.146 µM [falling, full curve, poor fit].
For `Cc1ccccc1Cn1c(C)nc2ccc([N+](=O)[O-])cc2c1=O`, the cell number change was -7.77% and the AC50 [1] was 3.66 µM [rising, partial curve].
For `Cc1ccnc(N2CCCC(C(=O)Nc3cccc(C)c3C)C2)n1` (stereo unspecified), the cell number change was 6.41% and the AC50 [1] was 0.58 µM [falling, partial curve].
For `O=C(c1ccccc1)c1nc2ccccc2[nH]c1=O`, the cell number change was 19.4% and the AC50 [1] was 29.1 µM [rising, single point].
`Cc1ccc(C(=O)NCC(=O)OCCCOC(=O)CNC(=O)c2ccc(C)cc2)cc1` showed a cell number change of -28.5%.
In the case of `N/C(Cn1cncn1)=N\NC(=O)C(=O)Nc1cccc(C(F)(F)F)c1`, the cell number change is reported as -0.615% and the AC50 [1] is reported as 29.1 µM [rising, partial curve, poor fit].
In the case of `Cc1cnc(C(=O)OCc2nc3ccsc3c(=O)[nH]2)cn1`, the cell number change is reported as 19.2%, the AC50 [2] is reported as 0.231 µM [rising, full curve, poor fit] and the AC50 [1] is reported as 29.1 µM [rising, single point].
`Cc1cccc(NC(=O)c2ccc([N+](=O)[O-])s2)c1C` showed a cell number change of 4.6%.
With `CCOc1cc(-c2c(C#N)c(=O)[nH]c3c2c(C)nn3-c2ccc(F)cc2)ccc1O` the AC50 [2] was 0.461 µM [falling, single point].
`O=C(NCCCc1ccccc1)c1ccncc1` gave a cell number change of -3.47%.
For `Cc1ccc(-n2nc(C)c(C3C(C#N)=C(N)OC4=C3C(=O)CCC4)c2Cl)cc1` (stereo unspecified), the cell number change was -12.1% and the AC50 [1] was 1.84 µM [rising, single point].
With `COc1ccc(CNC(=O)Cn2nc(C(F)(F)F)c(Br)c2C)cc1` the AC50 [1] was 0.58 µM [rising, single point].
In the case of `O=C(CCN1CCN(Cc2ccccc2)CC1)Nc1cccc(Cl)c1`, the cell number change is reported as -14.6% and the AC50 [1] is reported as 0.461 µM [rising, full curve, poor fit].
With `CCCCCCC(=O)N1C/C=C\C(c2ccc(OC)cc2)N(Cc2ccc(F)cc2)C(=O)[C@H]1Cc1ccccc1` (stereo partly specified) the cell number change was -55.8%, the AC50 [2] was 29.1 µM [falling, single point] and the AC50 [1] was 29.1 µM [falling, single point].
For `Cc1ccc(NC(=O)CSc2nn(-c3ccccc3)c(=S)s2)cc1S(=O)(=O)N(C)C`, the cell number change was -12.6% and the AC50 [1] was 3.26 µM [falling, single point].
For `O=C(CN1CCN(c2cccc(C(F)(F)F)c2)CC1)NCc1ccccc1`, the cell number change was -22.9% and the AC50 [1] was 0.116 µM [falling, full curve, poor fit].
Compound `CS(=O)(=O)Nc1ccccc1C(=O)Nc1ccccc1C(=O)N1CCCC1` has a cell number change of -15.3%.
With `CC(=O)N1CC[n+]2c(-c3ccc(Cl)cc3)csc21` the AC50 [1] was 7.31 µM [rising, partial curve].
With `Cc1csc(NC(=O)c2cc3c(C)nn(Cc4ccccc4Cl)c3s2)n1` the cell number change was -1.38%, the AC50 [2] was 0.0517 µM [rising, partial curve] and the AC50 [1] was 0.231 µM [rising, partial curve].
With `O=C(NCCCn1ccnc1)c1ccc(-c2ccccc2)cc1` the cell number change was -1.3% and the AC50 [1] was 0.092 µM [rising, full curve].
In the case of `Cn1c(SCC(=O)c2ccc(F)cc2)nc2cccnc21`, the cell number change is reported as 2.16%.
With `CCC1(C)NC(=O)N(CC(=O)N2CCN(c3cccc(Cl)c3)CC2)C1=O` (stereo unspecified) the cell number change was -23% and the AC50 [1] was 0.731 µM [falling, full curve, poor fit].
For `CSc1c(CC(=O)Nc2ccccc2)n(Cc2ccccc2)c2ccccc12`, the cell number change was -2.52% and the AC50 [2] was 3.26 µM [falling, partial curve].
For `O=C(CN1CCOCC1)N/N=C/c1ccc(-c2cccc(Cl)c2Cl)o1`, the AC50 [1] was 1.03 µM [rising, partial curve].
With `CC1CCN(Cc2nnc(-c3cccc(Br)c3)o2)CC1` the cell number change was -7.91% and the AC50 [1] was 29.1 µM [falling, single point].
With `COc1cccc(Cn2cnc3c(N)c(C)c(C)cc32)c1` the cell number change was 99.9%, the AC50 [2] was 3.26 µM [rising, full curve] and the AC50 [1] was 25.9 µM [rising, single point].
For `COc1ccc(C(=O)Nc2ccc(S(=O)(=O)N3CCCCC3)cc2)cc1`, the cell number change was 0.592% and the AC50 [1] was 11.6 µM [falling, single point].
For `COc1ccc(NC(=O)c2cc(CN3C(=O)c4ccccc4C3=O)ccc2OC)cn1`, the cell number change was 70.2%, the AC50 [2] was 0.259 µM [rising, full curve, poor fit] and the AC50 [1] was 29.1 µM [rising, single point].
For `CN(C)N=Nc1nc2c([nH]1)c(=O)n(C)c(=O)n2C`, the AC50 [1] was 29.1 µM [rising, single point].
In the case of `CCCS(=O)(=O)c1c(S(=O)(=O)CCC)c2c(C(N)=O)cccn2c1C(=O)c1ccc(F)cc1`, the cell number change is reported as 25.9%.
With `NC(=O)/C(=C/c1ccco1)NC(=O)/C=C/c1ccccc1` the AC50 [1] was 20.6 µM [rising, partial curve, poor fit].
For `CC(C)COC(=O)c1ccc(N2C(=O)c3ccccc3C2=O)cc1`, the cell number change was 1.02% and the AC50 [1] was 0.0259 µM [rising, full curve, poor fit].
For `CC(C)CCOc1ccc(C(=O)NCCC(=O)N2CCOCC2)cc1`, the cell number change was 28.6% and the AC50 [1] was 16.4 µM [rising, single point].
In the case of `Oc1c(Cl)cc(CN2CCOCC2)c2cccnc12`, the cell number change is reported as -57.7%, the AC50 [2] is reported as 23.1 µM [falling, partial curve, poor fit] and the AC50 [1] is reported as 32.6 µM [falling, single point].
